Reference: the supplement of paper PMC10849652
This is one part of the list. Residues, ends and D or L forms follow the SMILES beside them. *: point of attachment. Cbz = O=C(OCc1ccccc1)*

The chains behind the UniProt entries cited, without tags or fusion partners. Where a name states a change or a piece, a line headed by the entry shows the natural chain unless it says otherwise.
UniProt Q8N8J7: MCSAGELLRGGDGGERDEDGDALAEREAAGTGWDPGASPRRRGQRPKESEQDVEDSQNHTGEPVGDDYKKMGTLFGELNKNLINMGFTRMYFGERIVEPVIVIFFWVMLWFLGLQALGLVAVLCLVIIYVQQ
UniProt Q7L8L6: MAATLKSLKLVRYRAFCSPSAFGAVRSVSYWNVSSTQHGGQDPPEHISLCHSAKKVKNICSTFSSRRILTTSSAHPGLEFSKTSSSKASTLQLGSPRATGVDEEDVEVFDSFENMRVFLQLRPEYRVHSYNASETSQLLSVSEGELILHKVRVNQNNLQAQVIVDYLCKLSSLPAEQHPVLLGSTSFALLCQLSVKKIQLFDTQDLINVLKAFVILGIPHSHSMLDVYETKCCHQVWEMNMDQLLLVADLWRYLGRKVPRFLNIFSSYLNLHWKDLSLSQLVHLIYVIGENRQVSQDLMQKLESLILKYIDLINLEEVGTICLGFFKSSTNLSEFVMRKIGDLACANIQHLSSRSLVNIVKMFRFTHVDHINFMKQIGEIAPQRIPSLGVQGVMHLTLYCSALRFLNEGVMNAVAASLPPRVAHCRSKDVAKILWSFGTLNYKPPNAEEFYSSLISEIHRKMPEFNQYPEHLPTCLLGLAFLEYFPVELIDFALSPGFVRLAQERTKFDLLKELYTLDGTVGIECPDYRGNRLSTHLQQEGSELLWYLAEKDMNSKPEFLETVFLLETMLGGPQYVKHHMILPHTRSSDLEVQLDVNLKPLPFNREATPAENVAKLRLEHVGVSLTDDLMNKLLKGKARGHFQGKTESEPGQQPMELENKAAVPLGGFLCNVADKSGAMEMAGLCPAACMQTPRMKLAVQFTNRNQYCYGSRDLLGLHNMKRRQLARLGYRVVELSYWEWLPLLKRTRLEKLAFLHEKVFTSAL
UniProt Q8IW50: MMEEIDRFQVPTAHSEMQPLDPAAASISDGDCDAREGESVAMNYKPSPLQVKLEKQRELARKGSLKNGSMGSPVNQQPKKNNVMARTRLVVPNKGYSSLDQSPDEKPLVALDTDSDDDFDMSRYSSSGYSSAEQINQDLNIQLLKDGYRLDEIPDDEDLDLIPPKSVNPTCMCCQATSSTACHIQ
UniProt Q86WN1: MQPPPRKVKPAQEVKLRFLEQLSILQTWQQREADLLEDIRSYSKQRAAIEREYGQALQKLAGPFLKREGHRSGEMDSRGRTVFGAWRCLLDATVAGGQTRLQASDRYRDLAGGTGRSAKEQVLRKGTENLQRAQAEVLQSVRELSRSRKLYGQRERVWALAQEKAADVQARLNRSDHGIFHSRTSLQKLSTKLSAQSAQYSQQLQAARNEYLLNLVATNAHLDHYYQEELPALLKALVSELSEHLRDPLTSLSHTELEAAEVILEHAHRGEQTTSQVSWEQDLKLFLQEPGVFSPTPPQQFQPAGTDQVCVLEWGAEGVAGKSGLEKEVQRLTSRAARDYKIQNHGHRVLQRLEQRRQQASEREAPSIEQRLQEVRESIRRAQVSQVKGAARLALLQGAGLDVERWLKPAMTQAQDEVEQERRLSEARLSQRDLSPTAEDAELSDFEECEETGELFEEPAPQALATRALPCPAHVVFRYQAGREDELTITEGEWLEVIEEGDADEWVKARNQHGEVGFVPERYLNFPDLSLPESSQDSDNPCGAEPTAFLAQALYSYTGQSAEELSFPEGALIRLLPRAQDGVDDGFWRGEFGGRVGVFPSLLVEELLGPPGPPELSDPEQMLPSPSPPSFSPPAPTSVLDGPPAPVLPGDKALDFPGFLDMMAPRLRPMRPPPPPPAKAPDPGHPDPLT
UniProt Q02790: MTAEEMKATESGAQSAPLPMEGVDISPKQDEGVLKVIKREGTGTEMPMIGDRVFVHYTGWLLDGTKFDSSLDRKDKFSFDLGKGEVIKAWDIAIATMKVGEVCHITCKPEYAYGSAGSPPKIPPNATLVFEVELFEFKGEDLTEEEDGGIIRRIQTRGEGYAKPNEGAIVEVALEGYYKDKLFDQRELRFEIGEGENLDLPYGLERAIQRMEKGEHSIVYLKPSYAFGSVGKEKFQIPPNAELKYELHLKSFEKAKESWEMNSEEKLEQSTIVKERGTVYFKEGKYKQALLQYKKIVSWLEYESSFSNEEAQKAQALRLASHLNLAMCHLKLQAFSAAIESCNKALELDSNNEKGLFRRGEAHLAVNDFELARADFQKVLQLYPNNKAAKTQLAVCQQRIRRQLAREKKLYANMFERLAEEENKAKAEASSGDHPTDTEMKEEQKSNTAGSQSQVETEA
UniProt Q9NYQ8: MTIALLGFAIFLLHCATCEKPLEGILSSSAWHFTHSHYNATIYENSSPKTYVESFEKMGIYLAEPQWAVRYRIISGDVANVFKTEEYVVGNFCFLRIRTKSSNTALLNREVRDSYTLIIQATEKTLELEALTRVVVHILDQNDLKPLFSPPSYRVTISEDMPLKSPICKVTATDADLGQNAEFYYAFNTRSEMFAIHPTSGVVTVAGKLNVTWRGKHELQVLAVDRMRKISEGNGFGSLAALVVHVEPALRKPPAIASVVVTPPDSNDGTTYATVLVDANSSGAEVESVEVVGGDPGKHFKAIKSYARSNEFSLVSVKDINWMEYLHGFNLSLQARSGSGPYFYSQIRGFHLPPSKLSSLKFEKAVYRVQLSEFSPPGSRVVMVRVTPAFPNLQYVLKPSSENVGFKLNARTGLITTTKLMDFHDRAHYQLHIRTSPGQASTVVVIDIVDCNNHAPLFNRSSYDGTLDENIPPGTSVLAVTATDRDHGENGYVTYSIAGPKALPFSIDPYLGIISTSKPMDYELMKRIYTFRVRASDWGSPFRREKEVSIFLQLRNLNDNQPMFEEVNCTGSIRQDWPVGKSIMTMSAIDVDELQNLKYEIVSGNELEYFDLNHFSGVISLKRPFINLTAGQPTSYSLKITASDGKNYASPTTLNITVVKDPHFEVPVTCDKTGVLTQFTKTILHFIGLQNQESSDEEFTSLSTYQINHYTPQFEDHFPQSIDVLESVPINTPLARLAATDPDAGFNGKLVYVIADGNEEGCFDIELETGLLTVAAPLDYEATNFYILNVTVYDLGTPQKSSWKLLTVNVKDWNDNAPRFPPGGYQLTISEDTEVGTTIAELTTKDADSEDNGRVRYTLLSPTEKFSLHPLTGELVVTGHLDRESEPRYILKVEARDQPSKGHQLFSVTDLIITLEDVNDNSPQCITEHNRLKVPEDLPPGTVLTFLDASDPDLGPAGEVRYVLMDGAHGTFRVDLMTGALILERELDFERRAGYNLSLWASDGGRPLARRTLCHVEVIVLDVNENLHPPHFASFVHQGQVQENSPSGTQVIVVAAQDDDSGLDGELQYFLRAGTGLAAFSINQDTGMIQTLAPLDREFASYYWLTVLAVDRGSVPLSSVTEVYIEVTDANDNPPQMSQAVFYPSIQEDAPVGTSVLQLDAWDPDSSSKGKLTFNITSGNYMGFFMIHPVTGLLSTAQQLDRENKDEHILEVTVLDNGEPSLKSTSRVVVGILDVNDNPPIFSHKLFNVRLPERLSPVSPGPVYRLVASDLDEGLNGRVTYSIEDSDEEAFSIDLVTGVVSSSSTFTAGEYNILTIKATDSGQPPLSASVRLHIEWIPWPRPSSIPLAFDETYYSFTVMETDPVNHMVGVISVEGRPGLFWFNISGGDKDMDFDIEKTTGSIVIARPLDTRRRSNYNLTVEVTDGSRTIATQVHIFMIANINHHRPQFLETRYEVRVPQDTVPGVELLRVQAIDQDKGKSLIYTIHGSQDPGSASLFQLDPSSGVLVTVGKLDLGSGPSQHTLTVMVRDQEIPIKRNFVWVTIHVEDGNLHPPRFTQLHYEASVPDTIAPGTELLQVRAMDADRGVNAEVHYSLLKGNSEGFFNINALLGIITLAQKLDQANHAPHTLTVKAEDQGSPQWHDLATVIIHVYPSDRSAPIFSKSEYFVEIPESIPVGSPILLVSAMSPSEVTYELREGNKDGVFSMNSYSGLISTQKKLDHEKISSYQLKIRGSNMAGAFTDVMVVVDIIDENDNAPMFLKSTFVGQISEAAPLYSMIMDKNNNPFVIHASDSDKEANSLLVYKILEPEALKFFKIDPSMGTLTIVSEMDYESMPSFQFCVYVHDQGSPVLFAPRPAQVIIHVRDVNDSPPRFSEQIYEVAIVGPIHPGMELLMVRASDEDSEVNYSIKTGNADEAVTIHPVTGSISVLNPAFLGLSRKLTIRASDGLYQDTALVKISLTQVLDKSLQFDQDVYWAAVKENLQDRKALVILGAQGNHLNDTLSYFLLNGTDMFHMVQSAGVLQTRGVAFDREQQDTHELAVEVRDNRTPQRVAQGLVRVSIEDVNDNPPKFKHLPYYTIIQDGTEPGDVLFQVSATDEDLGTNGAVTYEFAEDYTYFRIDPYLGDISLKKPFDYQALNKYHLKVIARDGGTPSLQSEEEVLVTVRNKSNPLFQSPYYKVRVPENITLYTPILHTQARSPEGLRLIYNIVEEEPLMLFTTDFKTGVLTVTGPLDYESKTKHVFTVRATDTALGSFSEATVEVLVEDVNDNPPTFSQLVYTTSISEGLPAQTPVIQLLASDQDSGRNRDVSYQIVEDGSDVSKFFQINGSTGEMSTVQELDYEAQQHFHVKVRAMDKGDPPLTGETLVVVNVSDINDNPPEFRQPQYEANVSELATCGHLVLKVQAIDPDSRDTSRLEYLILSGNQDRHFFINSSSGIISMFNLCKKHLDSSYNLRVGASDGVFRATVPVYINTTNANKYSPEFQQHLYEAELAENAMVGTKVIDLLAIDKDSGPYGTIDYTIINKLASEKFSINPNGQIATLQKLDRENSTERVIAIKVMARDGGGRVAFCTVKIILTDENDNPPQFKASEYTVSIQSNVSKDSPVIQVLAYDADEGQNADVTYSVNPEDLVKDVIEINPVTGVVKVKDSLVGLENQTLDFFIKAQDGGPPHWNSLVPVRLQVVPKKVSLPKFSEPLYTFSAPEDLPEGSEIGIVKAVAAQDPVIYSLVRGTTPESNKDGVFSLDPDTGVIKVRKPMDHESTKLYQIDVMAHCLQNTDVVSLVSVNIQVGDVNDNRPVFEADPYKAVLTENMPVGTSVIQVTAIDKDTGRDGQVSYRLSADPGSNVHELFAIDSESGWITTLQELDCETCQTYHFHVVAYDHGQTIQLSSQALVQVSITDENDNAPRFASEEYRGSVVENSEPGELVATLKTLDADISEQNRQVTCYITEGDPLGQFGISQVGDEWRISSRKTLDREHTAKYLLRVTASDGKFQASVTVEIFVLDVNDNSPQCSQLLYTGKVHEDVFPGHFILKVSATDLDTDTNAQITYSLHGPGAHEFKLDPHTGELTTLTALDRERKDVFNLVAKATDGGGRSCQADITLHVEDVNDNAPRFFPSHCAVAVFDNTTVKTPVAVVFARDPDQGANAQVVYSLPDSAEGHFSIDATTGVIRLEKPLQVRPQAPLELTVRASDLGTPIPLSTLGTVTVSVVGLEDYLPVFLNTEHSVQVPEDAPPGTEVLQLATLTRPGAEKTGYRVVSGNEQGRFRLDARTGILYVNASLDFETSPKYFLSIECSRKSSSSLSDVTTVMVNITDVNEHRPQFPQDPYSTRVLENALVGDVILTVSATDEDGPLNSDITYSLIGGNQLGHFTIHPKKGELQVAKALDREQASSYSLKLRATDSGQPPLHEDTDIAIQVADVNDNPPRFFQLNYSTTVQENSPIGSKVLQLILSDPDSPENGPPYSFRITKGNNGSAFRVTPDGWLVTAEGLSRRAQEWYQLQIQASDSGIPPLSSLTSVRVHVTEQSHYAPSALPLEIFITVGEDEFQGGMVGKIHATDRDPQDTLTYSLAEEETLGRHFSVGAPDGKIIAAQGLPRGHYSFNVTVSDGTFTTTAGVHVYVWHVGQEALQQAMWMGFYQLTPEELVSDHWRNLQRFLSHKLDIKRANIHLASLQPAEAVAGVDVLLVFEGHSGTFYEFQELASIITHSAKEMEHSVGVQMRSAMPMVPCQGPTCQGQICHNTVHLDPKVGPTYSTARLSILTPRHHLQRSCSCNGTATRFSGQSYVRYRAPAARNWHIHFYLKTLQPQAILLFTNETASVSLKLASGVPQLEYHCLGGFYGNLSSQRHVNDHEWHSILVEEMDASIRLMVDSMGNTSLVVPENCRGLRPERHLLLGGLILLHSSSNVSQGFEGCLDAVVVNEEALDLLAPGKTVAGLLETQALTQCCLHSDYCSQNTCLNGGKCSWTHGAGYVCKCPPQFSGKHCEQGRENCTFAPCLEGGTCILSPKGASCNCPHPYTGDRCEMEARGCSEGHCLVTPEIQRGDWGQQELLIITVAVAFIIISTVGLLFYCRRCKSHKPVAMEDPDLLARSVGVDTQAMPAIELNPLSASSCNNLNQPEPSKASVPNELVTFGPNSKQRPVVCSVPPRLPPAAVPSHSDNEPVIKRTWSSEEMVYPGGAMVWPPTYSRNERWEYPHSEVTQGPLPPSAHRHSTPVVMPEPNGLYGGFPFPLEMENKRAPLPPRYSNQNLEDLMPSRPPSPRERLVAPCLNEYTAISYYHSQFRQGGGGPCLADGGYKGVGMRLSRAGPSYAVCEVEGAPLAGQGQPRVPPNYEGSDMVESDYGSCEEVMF

Legend:
Test in all cases: log2 fold change, soluble protein after heating vs DMSO (PISA); higher = thermal stabilisation; K562 cells, 10 uM, 30 min; active = over 0.2 and 3.5 SD of the protein, either way, in both replicates (recomputed)
erlotinib = compound: C#Cc1cccc(Nc2ncnc3cc(OCCOC)c(OCCOC)cc23)c1 [erlotinib]
Outline: (§1)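 Thermal stability values are relative to control samples and come from duplicates. They are expressed as log2 fold changes. For measurement, K562 cells (2×10^6 cells/mL) received 10 μM compound for 30 min, and aliquots were heated for 3 min over 48°C-58°C, pooled, and extracted at 4°C in PBS with 0.5% NP-40. Soluble protein, the supernatant after 21,000xg for 90 min, was quantified by TMTpro 16plex LC-MS/MS with equalised channel sums.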

[1] = compound: C/C(=N\NC(=O)C1=CC(=CC=C1)S(=O)(=O)N2CCOCC2)/C3=C(C=CC(=C3)Cl)O
Outline: as §1

[2] = compound: C1=CC(=C(C=C1Cl)C2=NC3=NC=CN=C3C(=N2)NC4=CC=NC=C4)F
Outline: as §1

[3] = compound: C1=CC(=CC=C1C2=NC3=C(N2)C=C(C=C3)C(=O)N)OC4=CC=C(C=C4)Cl
Outline: as §1

[4] = compound: C1=CC2=C(C=CC(=C2)/C=C\3/C(=O)NC(=NCC4=CC=CS4)S3)N=C1
Outline: as §1

[5] = compound: C1=CC2=NC=CN=C2C=C1/C=C/3\C(=O)NC(=O)S3
Outline: as §1

[6] = compound: C1=CC=C(C=C1)C2=NC(=C(N2)C3=CC=NC=C3)C4=CC(=C(C=C4)Cl)O
Outline: as §1

[7] = compound: C1=CC=C2C(=C1)C3=NNC4=CC=CC(=C43)C2=O
Outline: as §1

[8] = compound: C1CCN(C1)C(=O)NC2=CC=CC(=C2)NC3=NC=C(C(=N3)NCCC4=CN=CN4)Br
Outline: as §1

[9] = compound: C1CN(CCC1(CC2=CC=C(C=C2)Cl)N)C3=NC=NC4=C3C=CN4
Outline: as §1

IRAK-1-4 Inhibitor I = compound: C1COCCN1CCN2C3=CC=CC=C3N=C2NC(=O)C4=CC(=CC=C4)[N+](=O)[O-] [IRAK-1-4 Inhibitor I]
Outline: as §1

ibrutinib = compound: C=CC(=O)N1CCC[C@@H](n2nc(-c3ccc(Oc4ccccc4)cc3)c3c(N)ncnc32)C1 [ibrutinib]
Outline: as §1

[10] = compound: CC(=O)c1cnc2ccc(-c3cc(Cl)c(O)c(Cl)c3)nc2c1N[C@H]1CC[C@H](CN(C)C)CC1
Outline: as §1

ralimetinib = compound: CC(C)(C)Cn1c(N)nc2ccc(-c3[nH]c(C(C)(C)C)nc3-c3ccc(F)cc3)nc21 [ralimetinib]
Outline: as §1

[11] = compound: CC(C)(O)CC(=O)NCCn1ccc2ncnc(Nc3ccc(Oc4cccc(C(F)(F)F)c4)c(Cl)c3)c21
Outline: as §1

[12] = compound: CC(C)C1=C2N=C(C=C(N2N=C1)NCC3=CC=CC=C3)NCCCCCCN
Outline: as §1

[13] = compound: CC(C)C[C@@H](C=O)NC(=O)[C@H](CC(C)C)NC(=O)[C@H](CC(C)C)NC(=O)OCc1ccccc1
Outline: as §1

pinometostat = compound: CC(C)N(C[C@H]1O[C@@H](n2cnc3c(N)ncnc32)[C@H](O)[C@@H]1O)[C@H]1C[C@@H](CCc2nc3cc(C(C)(C)C)ccc3[nH]2)C1 [pinometostat]
Outline: as §1

[14] = compound: CC1=C(C2=C(C=C1)C(=O)C3=CC=CC=C3N2CCCN)C
Outline: as §1

[15] = compound: CC1=C(C(CC(=O)N1)C2=CC=C(C=C2)C(F)(F)F)C(=O)NC3=C(C=C4C(=C3)C=NN4)F
Outline: as §1

Measured: log2 fold change

FAM3A (UniProt P98173)
inactive: erlotinib -0.064 | [1] 0.118 | [2] -0.067 | [3] 0.029 | [4] 0.059 | [5] 0.082 | [6] 0.083 | [7] -0.05 | [8] -0.044 | [9] 0.059 | IRAK-1-4 Inhibitor I -0.028 | ibrutinib -0.011 | [10] 0.028 | ralimetinib 0.023 | [11] -0.028 | [12] -0.07 | [13] 0.047 | pinometostat 0.007 | [14] 0.088

FKRP (UniProt Q9H9S5)
inactive: erlotinib 0.009 | [1] 0.059 | [2] -0.006 | [3] -0.015 | [4] 0.053 | [5] 0.041 | [6] -0.053 | [7] -0.017 | [8] -0.017 | [9] -0.087 | ibrutinib 0.032 | [10] 0 | ralimetinib 0.022 | [11] 0.119 | [12] 0.158 | [13] -0.112 | [15] 0.019 | [14] 0.056

FNBP1L (UniProt Q5T0N5)
inactive: erlotinib -0.053 | [1] -0.2 | [3] -0.112 | [4] 0.022 | [5] -0.086 | [6] -0.033 | [7] 0.077 | [8] -0.255 | [9] -0.116 | IRAK-1-4 Inhibitor I 0.032 | ibrutinib 0.067 | [10] 0.019 | ralimetinib -0.006 | [12] 0.071 | [13] 0.046 | pinometostat -0.014 | [15] 0.081 | [14] 0.141

FAM241A (UniProt Q8N8J7)
inactive: erlotinib -0.012 | [1] -0.005 | [3] 0.044 | [4] -0.076 | [5] 0.043 | [6] -0.014 | [7] 0.012 | [8] 0.016 | [9] 0.045 | IRAK-1-4 Inhibitor I 0.011 | ibrutinib -0.094 | [10] 0.063 | ralimetinib -0.019 | [12] -0.008 | [13] 0.004 | pinometostat -0.029 | [14] -0.008

FASTKD5 (UniProt Q7L8L6)
inactive: erlotinib 0.231 | [1] -0.042 | [2] -0.002 | [3] -0.132 | [4] 0.278 | [5] -0.136 | [6] 0.02 | [7] -0.101 | [8] -0.214 | [9] 0.073 | ibrutinib 0.09 | [10] -0.207 | ralimetinib -0.146 | [11] 0.051 | [12] -0.23 | [13] -0.244 | [14] 0.115

FAM234B (UniProt A2RU67)
inactive: erlotinib -0.053 | [1] -0.033 | [3] -0.077 | [4] -0.401 | [5] 0.029 | [6] 0.039 | [7] 0.099 | [8] 0.109 | [9] -0.112 | IRAK-1-4 Inhibitor I 0.023 | ibrutinib 0.071 | [10] -0.086 | ralimetinib 0 | [12] 0.26 | [13] -0.003 | pinometostat 0.009 | [14] 0.15

2 successive records out of the list so far, quoted:
FKRP (UniProt Q9H9S5)
inactive: erlotinib 0.009 | [1] 0.059 | [2] -0.006 | [3] -0.015 | [4] 0.053 | [5] 0.041 | [6] -0.053 | [7] -0.017 | [8] -0.017 | [9] -0.087 | ibrutinib 0.032 | [10] 0 | ralimetinib 0.022 | [11] 0.119 | [12] 0.158 | [13] -0.112 | [15] 0.019 | [14] 0.056

FNBP1L (UniProt Q5T0N5)
inactive: erlotinib -0.053 | [1] -0.2 | [3] -0.112 | [4] 0.022 | [5] -0.086 | [6] -0.033 | [7] 0.077 | [8] -0.255 | [9] -0.116 | IRAK-1-4 Inhibitor I 0.032 | ibrutinib 0.067 | [10] 0.019 | ralimetinib -0.006 | [12] 0.071 | [13] 0.046 | pinometostat -0.014 | [15] 0.081 | [14] 0.141

The results go on.

FBRSL1 (UniProt Q9HCM7)
inactive: erlotinib 0.013 | [1] 0.082 | [2] -0.046 | [3] 0.08 | [4] -0.089 | [6] 0.003 | [7] 0.154 | [8] -0.201 | [9] 0.14 | [10] 0.164 | ralimetinib -0.301 | [11] -0.02 | [12] 0.144 | [13] 0.068 | [15] -0.147 | [14] -0.157

FBXO38 (UniProt Q6PIJ6)
inactive: erlotinib 0.216 | [1] 0.184 | [2] -0.06 | [3] -0.007 | [4] 0.181 | [5] 0.072 | [6] -0.076 | [7] -0.005 | [8] -0.056 | [9] -0.014 | IRAK-1-4 Inhibitor I -0.022 | ibrutinib 0.014 | [10] -0.107 | ralimetinib -0.148 | [11] 0.244 | [12] -0.157 | [13] 0.171 | pinometostat 0.066 | [14] 0.113

FGFR1OP2 (UniProt Q9NVK5)
inactive: erlotinib -0.04 | [1] -0.008 | [2] -0.105 | [3] 0.103 | [4] 0.057 | [5] 0.066 | [7] -0.039 | [8] 0.033 | [9] 0.003 | IRAK-1-4 Inhibitor I -0.016 | ibrutinib -0.022 | [10] -0.046 | [11] 0.178 | [12] -0.068 | pinometostat 0.1 | [15] -0.034 | [14] -0.068

FAM219A (UniProt Q8IW50)
inactive: erlotinib 0.028 | [1] 0.002 | [2] -0.033 | [3] 0.057 | [4] 0.074 | [5] 0.018 | [7] -0.03 | [8] -0.017 | [9] -0.034 | IRAK-1-4 Inhibitor I -0.07 | ibrutinib 0.023 | [10] -0.009 | [11] 0.041 | [12] -0.035 | pinometostat 0.003 | [15] -0.046 | [14] 0.041

FCHSD1 (UniProt Q86WN1)
inactive: erlotinib -0.06 | [1] -0.035 | [2] -0.128 | [3] -0.161 | [4] 0.043 | [6] -0.043 | [7] 0.063 | IRAK-1-4 Inhibitor I -0.012 | [10] -0.019 | ralimetinib 0.025 | [11] -0.047 | [12] -0.012 | [13] -0.087 | pinometostat 0.108

FKBP4 (UniProt Q02790)
inactive: erlotinib -0.04 | [1] 0.07 | [2] 0.055 | [3] -0.042 | [4] 0.017 | [5] 0.007 | [6] 0.036 | [7] 0.047 | [8] 0.016 | [9] -0.033 | IRAK-1-4 Inhibitor I 0 | ibrutinib -0.005 | [10] -0.006 | ralimetinib -0.016 | [11] -0.036 | [12] -0.094 | [13] 0.002 | pinometostat -0.032 | [14] 0.013

FKBP7 (UniProt Q9Y680)
inactive: erlotinib -0.027 | [1] -0.027 | [2] 0.005 | [3] 0.037 | [4] 0 | [5] 0.081 | [6] -0.037 | [7] -0.042 | [8] 0.039 | [9] 0.048 | IRAK-1-4 Inhibitor I 0.018 | ibrutinib 0.033 | [10] -0.031 | ralimetinib -0.033 | [11] 0.017 | [12] 0.055 | [13] -0.005 | pinometostat -0.059 | [14] -0.022

FMR1 (UniProt Q06787)
inactive: erlotinib -0.301 | [3] 0.154 | [6] -0.121 | IRAK-1-4 Inhibitor I 0.091 | ralimetinib 0.036 | [12] 0.149 | [13] 0.056 | pinometostat 0.153

FAM89A (UniProt Q96GI7)
inactive: erlotinib -0.133 | [3] 0.024 | [5] -0.018 | [6] 0.015 | IRAK-1-4 Inhibitor I -0.027 | ibrutinib -0.233 | ralimetinib 0.101 | [12] -0.028 | [13] 0.02 | pinometostat -0.024 | [15] 0.045

FBXO44 (UniProt Q9H4M3)
inactive: [5] 0.037 | [6] 0.128 | ibrutinib 0.013 | ralimetinib 0.113 | [13] 0.079 | [15] -0.303

FAM83G (UniProt A6ND36)
inactive: [2] 0.263 | [8] 0.005 | [9] 0.036 | [11] 0.136 | [14] 0.131

FLII isoform 2 (UniProt Q13045)
inactive: [1] 0.043 | [2] 0.131 | [4] -0.096 | [6] 0.101 | [7] 0.032 | [8] -0.333 | [9] -0.088 | [10] 0.01 | ralimetinib -0.106 | [11] -0.046 | [13] -0.134 | [14] 0.035

FAT2 (UniProt Q9NYQ8)
inactive: erlotinib 0.115 | [2] 0.26 | [3] -0.098 | [5] 0.096 | [6] 0 | [8] -0.166 | [9] 0.186 | IRAK-1-4 Inhibitor I 0.103 | ibrutinib 0.107 | ralimetinib 0.182 | [11] -0.149 | [12] -0.002 | [13] 0.225 | pinometostat 0.051 | [14] 0.132

FGL2 (UniProt Q14314)
inactive: erlotinib -0.051 | [3] -0.08 | [12] 0.113

FER (UniProt P16591)
inactive: erlotinib 0.925 | [1] 0.301 | [3] -0.657 | [4] -0.138 | [7] -0.982 | [10] 0.128 | [12] 0.109
